The numbers were not newly measured in PMC9585582 (ACS Bio & Med Chem Au, 2022), which cites them from elsewhere.

Usually pIC50 stands for the negative decadic logarithm of the IC50, by convention in mol/L. The term pKd denotes the negative decadic logarithm of the Kd, by convention in mol/L.

SMILES strings stand for the structures. pIC50, pKd: −log10 of the molar value.

Data set [1] concerns fixed cells. To be noted: cited from earlier work.
In data set [2] the target is purified microtubules. To be noted: cited from earlier work.

Turning to `COc1cc2c(c(OC)c1OC)-c1ccc(OC)c(=O)cc1[C@@H](NC(C)=O)CC2` [colchicine], the negative-log IC50 (pIC50) in data set [1] was 7.66. Besides, the pKd in data set [2] is 7.62.
